Test results: patent US20240174712A1, “COMPOSITIONS AND METHODS FOR PURIFYING ALPHA-1 ANTITRYPSIN USING PEPTIDE LIGANDS” (North Carolina State University, priority 2022, published 2024)
These are yes or no findings as the source states them, for the method shown. Some results given as binding are weak or reduced against the parent protein; the word gives no strength.

Chains of the proteins cited; added tags and fusions are not shown. Residues count along the entry.
UniProt P01009, residues 25-418: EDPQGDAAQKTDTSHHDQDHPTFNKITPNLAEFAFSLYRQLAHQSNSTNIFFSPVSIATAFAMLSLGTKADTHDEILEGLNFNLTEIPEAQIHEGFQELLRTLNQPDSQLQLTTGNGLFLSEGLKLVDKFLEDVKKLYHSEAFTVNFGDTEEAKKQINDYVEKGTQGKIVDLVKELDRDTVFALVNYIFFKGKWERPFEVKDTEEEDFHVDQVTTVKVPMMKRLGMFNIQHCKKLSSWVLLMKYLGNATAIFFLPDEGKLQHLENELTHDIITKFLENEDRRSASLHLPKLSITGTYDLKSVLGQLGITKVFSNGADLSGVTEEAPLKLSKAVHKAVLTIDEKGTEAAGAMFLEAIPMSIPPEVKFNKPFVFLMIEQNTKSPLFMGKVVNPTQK

Molecular target: AF594-labeled AAT (human) (UniProt P01009)
Experiment: on-bead library screen; red-only fluorescent beads with AF594-AAT in AF488-CHO HCPs, Edman sequencing

Binder | binding
AAHFHKGSG (C-terminus on HMBA-ChemMatrix resin bead) [AAHFHK on GSG-ChemMatrix library bead] | binds
FSHHSWKFGSG (C-terminus on HMBA-ChemMatrix resin bead) [FSHHSWKF on GSG-ChemMatrix library bead] | binds
KAWFKHWNGSG (C-terminus on HMBA-ChemMatrix resin bead) [KAWFKHWN on GSG-ChemMatrix library bead] | binds
KHSKAIAAGSG (C-terminus on HMBA-ChemMatrix resin bead) [KHSKAIAA on GSG-ChemMatrix library bead] | binds
KWKHSHKWGSG (C-terminus on HMBA-ChemMatrix resin bead) [KWKHSHKW on GSG-ChemMatrix library bead] | binds
WHAKKSHFGSG (C-terminus on HMBA-ChemMatrix resin bead) [WHAKKSHF on GSG-ChemMatrix library bead] | binds
WHAKKSKFGSG (C-terminus on HMBA-ChemMatrix resin bead) [WHAKKSKF on GSG-ChemMatrix library bead] | binds
AHIHFSEKGSG (C-terminus on HMBA-ChemMatrix resin bead) [AHIHFSEK on GSG-ChemMatrix library bead] | binds
EHSSWHSKGSG (C-terminus on HMBA-ChemMatrix resin bead) [EHSSWHSK on GSG-ChemMatrix library bead] | binds
IAKAKKWAGSG (C-terminus on HMBA-ChemMatrix resin bead) [IAKAKKWA on GSG-ChemMatrix library bead] | binds
WNHSIFFHGSG (C-terminus on HMBA-ChemMatrix resin bead) [WNHSIFFH on GSG-ChemMatrix library bead] | binds
KFHAWNGSG (C-terminus on HMBA-ChemMatrix resin bead) [KFHAWN on GSG-ChemMatrix library bead] | binds
NHSKKNIKGSG (C-terminus on HMBA-ChemMatrix resin bead) [NHSKKNIK on GSG-ChemMatrix library bead] | binds
FKHNAISAGSG (C-terminus on HMBA-ChemMatrix resin bead) [FKHNAISA on GSG-ChemMatrix library bead] | binds
FHWNHWFHGSG (C-terminus on HMBA-ChemMatrix resin bead) [FHWNHWFH on GSG-ChemMatrix library bead] | binds
ISSFEAAFGSG (C-terminus on HMBA-ChemMatrix resin bead) [ISSFEAAF on GSG-ChemMatrix library bead] | binds
KHAWIFGSG (C-terminus on HMBA-ChemMatrix resin bead) [KHAWIF on GSG-ChemMatrix library bead] | binds
NHNKIHGSG (C-terminus on HMBA-ChemMatrix resin bead) [NHNKIH on GSG-ChemMatrix library bead] | binds
SHWHWAGSG (C-terminus on HMBA-ChemMatrix resin bead) [SHWHWA on GSG-ChemMatrix library bead] | binds
KAKHKEGSG (C-terminus on HMBA-ChemMatrix resin bead) [KAKHKE on GSG-ChemMatrix library bead] | binds
WNKKWKGSG (C-terminus on HMBA-ChemMatrix resin bead) [WNKKWK on GSG-ChemMatrix library bead] | binds
ANAKIKKKGSG (C-terminus on HMBA-ChemMatrix resin bead) [ANAKIKKK on GSG-ChemMatrix library bead] | binds
FEKWAKAHGSG (C-terminus on HMBA-ChemMatrix resin bead) [FEKWAKAH on GSG-ChemMatrix library bead] | binds
